Data: PubChem BioAssay AID1347076 (National Center for Advancing Translational Sciences (NCATS), 2019)
Hit rate of the full screen: of about 400,000 compounds, about 13,000 (3.2%) were called active. Inconclusive means that the source gave no clear call. Such entries were picked first, then a sample of the others. Calls follow the shape of the dose curve; as a rule, active = well fitted cell-killing curve with a large enough effect; inconclusive = small, poorly fitted or top-dose-only effect, or effect the other way; inactive = flat fitted curve, though single readings scatter. Potencies of inconclusive entries are doubtful fits and often do not repeat.
% is scaled to controls: 0 for no effect and ±100 for the full control effect; potency is read from the fitted curve at half-maximal effect.

Assay: qHTS assay for MDR1-selective chemotherapeutics: Primary screen using the drug-selected MDR subline cells KB-V1; also: nearly all actives have a fitted effect of over 60% in size
Settings: KB-V1 MDR cells viability, CellTiter-Glo, 72 h; activity change, negative = cytotoxicity: at 46.1 µM (top of the series)
Summary of the method: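 KB-V1, DMEM (no phenol red) + 10% FBS; cpd pin-transferred, titration series; 72 h, 37 degrees C; CellTiter-Glo, luminescence. Data normalized, curve-fit.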
For `Cc1ccc(-c2nn(-c3ccccc3)cc2/C=N/NC(=O)c2ccc(Br)o2)cc1`, the “activity change, negative = cytotoxicity” value was inactive: -13%.
For `O=C(NN=C(Cc1ccccc1)Cc1ccccc1)c1ccccc1O`, the Potency was inconclusive: 16.4 µM [cytotoxic, single point].
In the case of `O=C(N/N=C/C1CC=CCC1)c1ccc(Cl)cc1O` (centres undefined), the Potency is reported as inconclusive: 18.4 µM [cytotoxic, single point].
For `O=C(NCC1CC1)c1csc([C@@H]2O[C@H](CO)[C@H](O)[C@H](O)[C@H]2O)n1`, the “activity change, negative = cytotoxicity” value was inactive: 1.99%.
In the case of `CCOc1ccc(/C=N/NC(=O)c2cc(-c3cccn3C)n[nH]2)cc1`, the Potency is reported as inconclusive: 20.6 µM [cytotoxic, partial curve, poor fit].
For `Cc1ccc(N/C(N)=N/c2nc(CSc3ccccn3)cc(=O)[nH]2)c(C)c1`, the Potency was inconclusive: 18.4 µM [cytotoxic, partial curve, poor fit].
With `O=c1ccc(S(=O)(=O)N2CCCC2)cn1Cc1nc(-c2ccc(F)cc2)no1` the Potency was inconclusive: 18.4 µM [cytotoxic, single point].
For `Cc1c(NCc2cc(Cl)cc(Cl)c2O)c(=O)n(-c2ccccc2)n1C`, the Potency was active: 20.6 µM.
For `CCSc1ncnc2c1sc1nc3c(cc12)COC(C)(C)C3`, the Potency was inconclusive: 10.3 µM [cytotoxic, partial curve].
With `O=C(O)c1c(F)c(F)cc2ccccc12` the Potency was inconclusive: 0.651 µM [rising, full curve].
For `O=c1c2ccccc2nc(/C=C/c2cccc([N+](=O)[O-])c2)n1CCO`, the Potency was inconclusive: 29.1 µM [cytotoxic, single point].
In the case of `O=C(Nc1ccc(Cl)cc1)Nc1ccon1`, the Potency is reported as inconclusive: 20.6 µM [cytotoxic, single point].
For `Cc1nc(NCc2ccccn2)c2ccccc2n1`, the Potency was inconclusive: 18.4 µM [cytotoxic, partial curve].
With `OC(COc1cccc2ccccc12)CN1CCOCC1` (centres undefined) the “activity change, negative = cytotoxicity” value was inactive: 1.05%.
In the case of `O=C(Cc1cccc(NC(=O)C2CCN(C(=O)c3ccccc3)CC2)c1)Nc1cccc(C(=O)N2CCOCC2)c1`, the Potency is reported as inconclusive: 32.6 µM [rising, single point].
For `CCn1c(C(=O)N2CCC(C(=O)NCCc3ccccc3)CC2)cc2sccc21`, the “activity change, negative = cytotoxicity” value was inactive: -16.9%.
With `Cc1ccc2nc(-c3ccc(F)cc3)c(CC3CCCCC3)n2c1` the Potency was inconclusive: 16.4 µM [cytotoxic, partial curve].
With `Cc1ccc(/C(N)=N/OC(=O)N2CCOCC2)cc1` the Potency was inconclusive: 29.1 µM [cytotoxic, single point].
For `O=C1c2ccccc2C(=O)N1c1ccc(S(=O)(=O)N2CCOCC2)cc1`, the “activity change, negative = cytotoxicity” value was inactive: 9.83%.
For `COc1cc(NC(=O)CCc2c(C)noc2C)c(C(=O)O)cc1OC`, the “activity change, negative = cytotoxicity” value was inactive: 1.38%.
With `COc1ccc(C(=O)COc2ccc(C(C)=O)cc2OC)cc1OC` the Potency was inconclusive: 29.1 µM [cytotoxic, partial curve, poor fit].
With `NC(=O)c1cc([N+](=O)[O-])ccc1NCC1CCCCC1` the “activity change, negative = cytotoxicity” value was inactive: -4.28%.
In the case of `C[C@H](CO)N1C[C@H](C)[C@@H](CN(C)C(=O)Nc2ccccc2)Oc2c(NS(=O)(=O)c3cccs3)cccc2C1=O`, the “activity change, negative = cytotoxicity” value is reported as inactive: 4.31%.
In the case of `COc1ccc(CN2CCCC(C(=O)N3CCc4ccccc4C3)C2)cc1OC` (centres undefined), the “activity change, negative = cytotoxicity” value is reported as inactive: 18.3%.
With `Cc1ccc(S(=O)(=O)NCCC(c2ccc(F)cc2)c2ccco2)cc1` (centres undefined) the Potency was active: 20.6 µM.
With `Cc1cccc(S(=O)(=O)Nc2cc(Cl)ccc2N2CCOCC2)c1` the “activity change, negative = cytotoxicity” value was inactive: -17.4%.
With `COC(=O)/C(=C\Nc1ccc(Cl)cc1Cl)NC(=O)c1ccc(OC)cc1` the Potency was active: 4.11 µM.
For `COc1cc2c(cc1NC(=O)Cc1ccc(C)cc1)oc1ccccc12`, the Potency was inconclusive: 0.0411 µM [rising, full curve].
For `COc1ccc(-n2nc(C(=O)N3CCN(c4ccccc4OC)CC3)c3c4ccccc4n(C)c3c2=O)cc1`, the “activity change, negative = cytotoxicity” value was inactive: -5.27%.
For `CCC1CCCCN1C(=S)NC(=O)c1ccc([N+](=O)[O-])cc1` (centres undefined), the Potency was inconclusive: 29.1 µM [cytotoxic, single point].
For `CC1CCCN(S(=O)(=O)c2ccccc2[N+](=O)[O-])C1` (centres undefined), the Potency was inconclusive: 20.6 µM [cytotoxic, single point].
With `CCn1c(COC(=O)CNC(=O)c2cc(OC)c(OC)c(OC)c2)nc2cc(S(=O)(=O)N(C)C)ccc21` the Potency was inconclusive: 29.1 µM [rising, single point].
With `O=C(Nc1ccc(Cl)cc1)Nc1ccc(C(=O)N2CCOCC2)cc1` the “activity change, negative = cytotoxicity” value was inactive: -1.12%.
In the case of `S=C(NCCc1ccccc1)Nc1ccc(Br)cc1`, the Potency is reported as active: 18.4 µM.
In the case of `CCOc1cc(C=O)ccc1OCC(=O)NC(C)(C)C`, the “activity change, negative = cytotoxicity” value is reported as inactive: 7.69%.
With `CCNc1nc(Nc2ccc(C)c(Cl)c2)c2cnn(C)c2n1` the “activity change, negative = cytotoxicity” value was inactive: 0%.
For `CCC(C)N1CCN(C(=O)c2cccs2)CC1` (centres undefined), the “activity change, negative = cytotoxicity” value was inactive: 1.73%.
For `Cc1ccc(-n2c(C)nnc2SCC(=O)N2CCc3ccccc3C2)cc1C`, the Potency was active: 9.2 µM.
With `O=C(CCCn1c(=S)[nH]c2cc3c(cc2c1=O)OCO3)N1CCN(c2ccc(Cl)cc2)CC1` the Potency was inconclusive: 3.55 µM [cytotoxic, full curve].
In the case of `c1ccc(SCCOCCN2CCc3ccccc3C2)cc1`, the “activity change, negative = cytotoxicity” value is reported as inactive: 0.714%.
In the case of `CCOc1ccc(Oc2ccc(NC(=O)[C@@H](NC(N)=O)[C@@H](C)CC)cc2)cc1`, the Potency is reported as inconclusive: 32.6 µM [rising, single point].
In the case of `O=C(C1=NN[C@@H]2C(=O)N(c3cccc(F)c3)C(=O)[C@H]12)C(c1ccccc1)c1ccccc1`, the “activity change, negative = cytotoxicity” value is reported as inactive: 3%.
In the case of `CC(=O)NC(c1ccc(Cl)cc1Cl)c1ccc2cccnc2c1O` (centres undefined), the “activity change, negative = cytotoxicity” value is reported as inactive: 0%.
With `CCOC(=O)c1cc2occc2n1CC(=O)N1CCCc2ccccc21` the Potency was active: 16.4 µM.
For `C(=C\c1ccccc1)/C=N/Nc1nc2ccccc2s1`, the “activity change, negative = cytotoxicity” value was inactive: -17.5%.
For `O=C(Nc1ccc(Cl)cc1)N(Cc1cccnc1)Cc1ccco1`, the “activity change, negative = cytotoxicity” value was inactive: -14.4%.
For `CC(=O)Nc1ccc(SC[C@H](Cc2ccccc2)N2CC[C@@H](C(C)(C)C)CCC2=O)cc1`, the Potency was inconclusive: 9.2 µM [cytotoxic, partial curve].
With `COc1ccc(CCN=C(NS(=O)(=O)c2ccc(Cl)cc2)c2ccccc2)cc1` the Potency was inconclusive: 8.2 µM [cytotoxic, partial curve].
In the case of `COCC(=O)Nc1cc([N+](=O)[O-])ccc1C`, the Potency is reported as inconclusive: 29.1 µM [rising, single point].
